Laboratory results reported in patent US20100120843A1, “PHARMACEUTICAL COMPOSITION FOR TREATING ALCOHOL-INDUCED LIVER INJURY COMPRISING (4S,5S)-5-FLUOROMETHYL-5-HYDROXY-4-(AMINO)-DIHYDROFURAN-2-ONE OR PHARMACEUTICALLY ACCEPTABLE SALT THEREOF” (LG Life Sciences Ltd., priority 2008, published 2010).

Experiment: Measurement of change of body weight and liver mass after 12 weeks' diet
Assay type: in vivo, rat
Settings: male Sprague-Dawley rats
[1] = Control diet with CF1, 10 mg/kg daily oral gavage
[2] = EtOH diet (6% ethanol) with CF1, 10 mg/kg daily oral gavage

Question: With `CC(C)[C@@]1(C(=O)N[C@H]2CC(=O)O[C@]2(O)CF)CC(c2nccc3ccccc23)=NO1` [CF1, (4S,5S)-5-fluoromethyl-5-hydroxy-4-({[(5R)-5-isopropyl-3-(isoquinolin-1-yl)-4,5-dihydro-5-isoxazolyl]carbonyl}amino)-dihydrofuran-2-one] as the molecule, how does the “Body Weight” value [1] read?
Answer: The value was 400.0 ± 20.00 g.

Question: What about the “Liver Mass” value [1] of the same molecule?
Answer: The value was 10.37 ± 1.10 g.

Question: And the “Body Weight” value [2]?
Answer: The value was 372.5 ± 17.08 g.

Question: What about the “Liver Mass” value [2] of the same molecule?
Answer: Its value is 11.36 ± 0.87 g.
